Among all 310,000 compounds or so, about 17,000 (5.5%) were called active. Inconclusive results, whose numbers are uncertain, are shown with a selection of clear calls. Calls follow the shape of the dose curve; as a rule, active = well fitted inhibition curve with a large enough effect; inconclusive = small, poorly fitted or top-dose-only effect, or effect the other way; inactive = no such curve, though single readings can be large or run the other way. Potencies beside an inconclusive call are fits to weak or partial responses and may not hold up.
What follows are compounds tested against Nuclear receptor ROR-gamma (Mus musculus) (UniProt P51450) (assay: qHTS for inhibitors of ROR gamma transcriptional activity). Details: Drosophila S2 Gal4-RORgamma UAS-luciferase reporter, 20 h; activity change, negative = inhibition: at 53.6 µM (top of the series).
Summary of the method: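 Luminescence from a UAS-regulated Photinus luciferase reporter in stably transfected Drosophila Schneider cells is measured; decreased signal marks ROR gamma inhibition. Fusion expression is induced by 700 uM copper sulfate for 20 hr.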
% is scaled to controls: 0 for no effect and ±100 for the full control effect; potency is read from the fitted curve at half-maximal effect.
Also: nearly all actives have a fitted effect of over 60% in size.

By UniProt entry, the sequences of proteins in these tests, tags left out. Where a name states a change or a piece, a line headed by the entry shows the natural chain unless it says otherwise.
UniProt P51450: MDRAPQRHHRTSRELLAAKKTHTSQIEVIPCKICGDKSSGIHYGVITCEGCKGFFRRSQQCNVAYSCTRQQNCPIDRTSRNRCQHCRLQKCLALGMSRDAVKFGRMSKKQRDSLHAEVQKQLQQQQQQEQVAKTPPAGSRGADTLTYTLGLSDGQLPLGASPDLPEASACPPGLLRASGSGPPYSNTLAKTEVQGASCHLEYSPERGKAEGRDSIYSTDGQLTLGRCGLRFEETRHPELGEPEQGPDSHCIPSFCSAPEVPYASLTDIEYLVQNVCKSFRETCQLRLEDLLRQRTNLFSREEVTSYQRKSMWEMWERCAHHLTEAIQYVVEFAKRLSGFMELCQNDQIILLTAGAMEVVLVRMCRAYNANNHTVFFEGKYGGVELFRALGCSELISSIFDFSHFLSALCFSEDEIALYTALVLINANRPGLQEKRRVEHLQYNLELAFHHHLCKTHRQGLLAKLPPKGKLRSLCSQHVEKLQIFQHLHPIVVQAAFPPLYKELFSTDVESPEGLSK

Question: Which Potency does the source give for `CCN1CCCc2cc(CN(CCN3CCOCC3)C(=S)Nc3ccccc3OC)ccc21` here?
Answer: The Potency was active: 10 µM.

Question: Which Potency does the source give for `CC(=O)N(C(C)=O)c1ncnc2c1c(-c1ccc(Cl)cc1)nn2C(C)(C)C` here?
Answer: Its Potency is active: 11.2 µM.

Question: For `c1ccc2c(c1)nc(N1CCOCC1)c1c3ccccc3[nH]c21`, which Potency is on record?
Answer: The Potency was inconclusive: 4.47 µM [inhibitor, single point].

Question: For `Cc1cc(NN)nc(NS(=O)(=O)c2ccc(Cl)cc2)n1`, which Potency is on record?
Answer: Its Potency is “inactive”.

Question: How did the Potency turn out when `O=C(Nc1ccc(S(=O)(=O)NCc2ccccc2)cc1)c1ccccc1[N+](=O)[O-]` was run?
Answer: The Potency was inconclusive: 31.6 µM [activator, single point].

Question: `CCC1(C)Cc2c(sc3nnn(CC(=O)Nc4ccc(Cl)cc4)c(=O)c23)CO1` (stereo unspecified) was tested. Which Potency did it give?
Answer: Its Potency is inconclusive: 11.2 µM [activator, partial curve].

Question: `O=C(NCc1ccccc1Cl)c1ccc(CSc2nc3ccncc3[nH]2)cc1` was tested. Which Potency did it give?
Answer: The Potency was inconclusive: 11.2 µM [activator, partial curve].

Question: For `COc1cc(Cl)c(S(=O)(=O)NCc2ccccn2)cc1Cl`, which Potency is on record?
Answer: The Potency was active: 11.2 µM.

Question: For `CC(NCC(O)COC1CCC(C(C)(C)C)CC1)c1ccccc1` (stereo unspecified), which Potency is on record?
Answer: Its Potency is inconclusive: 14.1 µM [inhibitor, single point].

Question: How did the Potency turn out when `COc1cccc(NC(=S)N2CCN(c3ccccn3)CC2)c1` was run?
Answer: Its Potency is inconclusive: 12.6 µM [inhibitor, single point].

Question: Which Potency does the source give for `COc1ccc(S(=O)(=O)N2CCCC(C(=O)NCc3ccncc3)C2)cc1Cl` (stereo unspecified) here?
Answer: The Potency was inconclusive: 5.01 µM [inhibitor, single point].

Question: Which Potency does the source give for `Cc1cc2nc(N)sc2cc1[N+](=O)[O-]` here?
Answer: Its Potency is inconclusive: 6.31 µM [activator, partial curve].

Question: How did the Potency turn out when `CC1CCN(S(=O)(=O)c2ccc3c(c2)CC(C)N3C(=O)C2CCC2)CC1` (stereo unspecified) was run?
Answer: The Potency was inconclusive: 14.1 µM [activator, single point].

Question: With `CSc1nsc(SCC(=O)Nc2ccccn2)n1` as the compound, how does the Potency read?
Answer: Its Potency is inconclusive: 6.31 µM [activator, single point].

Question: With `O=C1[C@H]2[C@H]3[C@H](O)[C@H](O)C/C(=N/OCc4ccccc4)[C@H]3CC[C@@H]2C(=O)N1C[C@@H]1CCCO1` as the compound, how does the activity change, negative = inhibition read?
Answer: Its activity change, negative = inhibition is inactive: 7.83% [at 10 µM].

Question: `Cc1cc(C)c2c(N)c(C(=O)c3cccc(Cl)c3)sc2n1` was tested. Which Potency did it give?
Answer: The Potency was “inactive”.

Question: Which Potency does the source give for `Cc1nnc(NC(=O)c2c(-c3ccccc3Cl)noc2C)s1` here?
Answer: Its Potency is inconclusive: 28.2 µM [inhibitor, single point].

Question: `CCNC(=S)N/N=C(\C)c1ccc2ccccc2c1` was tested. Which Potency did it give?
Answer: Its Potency is active: 2.82 µM.

Question: For `CC(C)(C)c1ccc(OC(=O)N2CCOCC2)cc1`, which Potency is on record?
Answer: Its Potency is inconclusive: 1.26 µM [activator, partial curve].

Question: With `CCCCN(Cc1ccccc1)c1ncnc2nc[nH]c12` as the compound, how does the Potency read?
Answer: The Potency was inconclusive: 20 µM [inhibitor, single point].

Question: `CC(c1ccccc1)C1C(C#N)=C(N)OC2=C1C(=O)CC(C)(C)C2` (stereo unspecified) was tested. Which Potency did it give?
Answer: Its Potency is inconclusive: 12.6 µM [activator, partial curve].

Question: `CC(C)(C)C1CCc2onc(C(=O)Nc3cnn(Cc4ccc(F)cc4)c3)c2C1` (stereo unspecified) was tested. Which Potency did it give?
Answer: Its Potency is inconclusive: 20 µM [inhibitor, single point].

Question: Which Potency does the source give for `NS(=O)(=O)c1ccc(N=Nc2c[nH]c(=O)c(O)c2)cc1` here?
Answer: Its Potency is “inactive”.

Question: How did the Potency turn out when `Cc1ccc(-n2c(-c3cnccn3)n[nH]c2=S)c(Br)c1` was run?
Answer: The Potency was active: 7.94 µM.

Question: For `Cc1cc(C(=O)Cn2nnc3ccccc3c2=O)c(C)n1-c1ccccc1F`, which Potency is on record?
Answer: The Potency was inconclusive: 15.8 µM [inhibitor, single point].

Question: `CCc1cc2c(NCc3ccccc3)nc(C)nc2s1` was tested. Which Potency did it give?
Answer: The Potency was inconclusive: 11.2 µM [activator, partial curve].

Question: How did the Potency turn out when `COc1ccc2cc3cc(C(=O)N4CC(C)CC(C)C4)oc3nc2c1` (stereo unspecified) was run?
Answer: Its Potency is inconclusive: 12.6 µM [activator, single point].

Question: With `Cc1ccc(N=CNc2ccc(C)cc2C)c(C)c1` as the compound, how does the Potency read?
Answer: Its Potency is “inactive”.

Question: With `COC(=O)c1ccc2c(=O)[nH]c(CCl)nc2c1` as the compound, how does the Potency read?
Answer: The Potency was active: 12.6 µM.

Question: With `Cc1ccc(C)c(NC(CC(=O)c2ccccc2)C(=O)OCC(=O)c2cccs2)c1` (stereo unspecified) as the compound, how does the Potency read?
Answer: Its Potency is inconclusive: 35.5 µM [inhibitor, single point].

Question: `COc1ccc(C2=NN(C(=O)c3ccccc3)C(c3ccc(OC)c(OC)c3)C2)c(OC(C)=O)c1` (stereo unspecified) was tested. Which Potency did it give?
Answer: The Potency was “inactive”.

Question: `O=C(c1cnccn1)N1CCC[C@@]2(CCN(Cc3nccs3)C2)C1` was tested. Which Potency did it give?
Answer: The Potency was “inactive”.

Question: With `Cc1cc(C(=O)NCc2ccccc2Cl)c2ccccc2n1` as the compound, how does the Potency read?
Answer: Its Potency is inconclusive: 22.4 µM [activator, single point].

Question: `Clc1ccc(Nc2ccc(-n3ccnc3)nn2)cc1Cl` was tested. Which Potency did it give?
Answer: The Potency was “inactive”.

Question: `CC1(C)CC(=S)Nc2ccccc2S1` was tested. Which Potency did it give?
Answer: The Potency was active: 2.82 µM.

Question: `CCc1ccc(OCCCC(=O)NCc2ccco2)cc1` was tested. Which Potency did it give?
Answer: Its Potency is inconclusive: 35.5 µM [activator, single point].

Question: For `Cc1cccc(OCCCN2CCCCCC2)c1`, which Potency is on record?
Answer: Its Potency is “inactive”.

Question: How did the Potency turn out when `O=C(NC(=S)Nc1cc(C(F)(F)F)ccc1N1CCOCC1)c1ccc(-c2cccc(Cl)c2)o1` was run?
Answer: Its Potency is active: 10 µM.

Question: With `Fc1cccc(Cl)c1CNn1cn[nH]c1=S` as the compound, how does the Potency read?
Answer: Its Potency is inconclusive: 12.6 µM [inhibitor, single point].

Question: For `O=C(CCCNS(=O)(=O)c1cccc2nsnc12)NCCc1ccccc1`, which Potency is on record?
Answer: The Potency was “inactive”.

Question: `COc1ccc(CC(=O)Nc2ccc(C(=O)NC(C)(C)C)cc2)cc1` was tested. Which Potency did it give?
Answer: The Potency was “inactive”.

Question: `Cc1ccc(O)c(C(=O)CC(=O)c2ccc(C(C)(C)C)cc2)c1` was tested. Which Potency did it give?
Answer: Its Potency is active: 5.62 µM.

Question: Which Potency does the source give for `CC(=O)C1=C(NC(=O)c2ccc(F)cc2)CC2C1C2(C)C` (stereo unspecified) here?
Answer: The Potency was inconclusive: 1.41 µM [activator, full curve].

Question: How did the Potency turn out when `CCOc1ccc(CNc2ccc3c(c2)ncn3C(C)(C)C)cc1` was run?
Answer: Its Potency is inconclusive: 14.1 µM [inhibitor, partial curve, poor fit].

Question: With `Cc1ccc(NC(=S)N=Nc2c(O)n(C)c3ccc(S(=O)(=O)N4CCOCC4)cc23)cc1` as the compound, how does the Potency read?
Answer: The Potency was active: 0.708 µM.

Question: Which Potency does the source give for `O=C(N/N=C/c1ccc(N2CCCCC2)o1)C(O)(c1ccccc1)c1ccccc1` here?
Answer: The Potency was active: 11.2 µM.

Question: How did the Potency turn out when `CCOC(=O)c1c(NC(=O)C2C3C=CC(C3)C2(C)C(=O)O)sc2c1CCCC2` (stereo unspecified) was run?
Answer: The Potency was inconclusive: 14.1 µM [activator, single point].

Question: Which Potency does the source give for `Cc1cc(N)ccc1NC(=O)CN1CCOCC1` here?
Answer: Its Potency is “inactive”.

Question: For `CC(C)N(c1ccccc1)c1ccc(NC(=O)C2CCCO2)cc1` (stereo unspecified), which Potency is on record?
Answer: The Potency was “inactive”.

Question: For `CCCN1CCN(C(=O)c2cc(COc3ccc4ncccc4c3)on2)CC1`, which Potency is on record?
Answer: The Potency was active: 12.6 µM.

Question: Which Potency does the source give for `O=C(c1sc2cc(F)ccc2c1Cl)N1CCN(c2cccc(Cl)c2)CC1` here?
Answer: The Potency was inconclusive: 22.4 µM [activator, single point].

Question: With `COc1ccccc1OCCn1cc(/C=N/NC(N)=S)c2ccccc21` as the compound, how does the Potency read?
Answer: Its Potency is active: 0.501 µM.

Question: How did the Potency turn out when `O=C(COc1ccc(Cl)cc1)Nc1ccc2c(c1)CCC2` was run?
Answer: The Potency was inconclusive: 11.2 µM [activator, partial curve].

Question: With `O=C(NCC1CCCO1)c1ccc(CSCc2cccc(F)c2)o1` (stereo unspecified) as the compound, how does the Potency read?
Answer: Its Potency is inconclusive: 14.1 µM [activator, partial curve].

Question: How did the Potency turn out when `COC(=O)c1ccc(CN2CCCC(C(=O)Nc3cccc(-n4cnnn4)c3)C2)cc1` (stereo unspecified) was run?
Answer: The Potency was inconclusive: 17.8 µM [inhibitor, single point].

Question: How did the Potency turn out when `Cc1ccc(C(=O)CSc2nnc(COc3cccc(C)c3)o2)cc1` was run?
Answer: Its Potency is inconclusive: 3.55 µM [inhibitor, single point].

Question: `Cc1nn(-c2ccccc2)c(C)c1/C=N/NC(=O)CSc1nc2ccccc2c(=O)n1-c1ccc(Br)cc1` was tested. Which Potency did it give?
Answer: Its Potency is inconclusive: 35.5 µM [inhibitor, single point].

Question: How did the Potency turn out when `O=C(c1ccc([N+](=O)[O-])s1)N1CCN(c2ccccc2)CC1` was run?
Answer: Its Potency is active: 25.1 µM.

Question: `COCOc1c2c(c(OCOC)c3c(OCOC)cccc13)/C(=N/N[S+](=O)([O-])c1ccc(C)cc1)C1=C2CCCC1` was tested. Which Potency did it give?
Answer: The Potency was “inactive”.

Question: Which Potency does the source give for `COc1ccc(-c2nn(-c3ccccc3)cc2/C=N/Nc2ccccn2)cc1` here?
Answer: The Potency was active: 1.58 µM.

Question: Which Potency does the source give for `Cc1cccc(NC(=S)NNC(=O)Cc2ccccc2)c1` here?
Answer: Its Potency is active: 11.2 µM.

Question: Which Potency does the source give for `COc1ccc(-c2nnc(C3CCN(S(=O)(=O)c4ccccc4)CC3)o2)cc1` here?
Answer: Its Potency is inconclusive: 17.8 µM [inhibitor, single point].

Question: With `Cc1ccc2nc(NC(=S)NC(=O)c3ccco3)sc2c1` as the compound, how does the Potency read?
Answer: The Potency was active: 0.282 µM.

Question: With `Clc1ccc(N=c2ssnc2Cl)cc1` as the compound, how does the Potency read?
Answer: Its Potency is inconclusive: 35.5 µM [inhibitor, single point].

Question: With `COCCNC(=S)NN=C1CCCCC1` as the compound, how does the Potency read?
Answer: The Potency was active: 12.6 µM.

Question: How did the Potency turn out when `COc1ccc(-n2c(O)c(C=Nc3ccccc3)c3ccccc3c2=O)cc1OC` was run?
Answer: The Potency was “inactive”.

Question: How did the Potency turn out when `C=CCn1c(-c2sc3nc(C)cc(C)c3c2N)n[nH]c1=S` was run?
Answer: The Potency was inconclusive: 5.01 µM [inhibitor, full curve, poor fit].

Question: `COC(=O)c1ccccc1NC(=O)NCCc1ccc(OC)c(OC)c1` was tested. Which Potency did it give?
Answer: Its Potency is inconclusive: 4.47 µM [activator, partial curve, poor fit].

Question: For `Cc1ccc(S(=O)(=O)N(C)C)cc1NC(=S)Nc1cccc2ccccc12`, which Potency is on record?
Answer: The Potency was inconclusive: 25.1 µM [inhibitor, single point].

Question: `CN(Cc1ccsc1)C(=O)Cn1cc(Br)ccc1=O` was tested. Which Potency did it give?
Answer: The Potency was “inactive”.

Question: How did the Potency turn out when `Cn1c(CSCc2ccc(F)cc2)nnc1SCC(=O)N1CCN(c2ccccc2)CC1` was run?
Answer: The Potency was inconclusive: 11.2 µM [activator, partial curve].

Question: How did the Potency turn out when `CC(C)OC(=O)c1c(NC(=O)c2ccco2)sc2c1CCCC2` was run?
Answer: The Potency was inconclusive: 0.141 µM [inhibitor, full curve, poor fit].

Question: `Cn1c(SCC(=O)Nc2ccc3c(c2)OCO3)nnc1-c1cnccn1` was tested. Which Potency did it give?
Answer: Its Potency is “inactive”.

Question: How did the Potency turn out when `COc1ccc(OCC(=O)Nc2ccccc2N2CCCCC2)cc1` was run?
Answer: The Potency was inconclusive: 31.6 µM [activator, single point].

Question: How did the Potency turn out when `CCCC[C@@H]1CNC(=O)C(=O)N1CCCc1cc(OC)c(OC)c(OC)c1` was run?
Answer: The Potency was “inactive”.

Question: For `O=c1[nH]c2cccc(Cl)c2n(CCNc2ncc(C(F)(F)F)cc2Cl)c1=O`, which Potency is on record?
Answer: The Potency was inconclusive: 20 µM [inhibitor, single point].
